{"source": "PubChem BioAssay (NCATS)", "note": "The shares of active, inactive and inconclusive entries below differ from those in the screen. Potencies beside an inconclusive call are fits to weak or partial responses and may not hold up. Activity calls are given as the source filed them. Calls come from the whole dose curve; as a rule, active = well fitted cell-killing curve with a large enough effect; inconclusive = small, poorly fitted or top-dose-only effect, or effect the other way; inactive = no such curve, though single readings can be large or run the other way. Potency is the fitted concentration of half-maximal effect.", "data": [{"assay": "Quantitative High-Throughput drug screen in 47 multiple myeloma cell lines against the NCATS MIPE library collection: MOLP8_DSMZ cell viability assay (AID 1918977); note: nearly all actives have a fitted effect of over 45% in size", "settings": "MOLP8 myeloma viability, CellTiter-Glo ATP luminescence, 48 h; series mostly up to 45.8 µM", "from_the_text": "PI: Beverly A. Mock Ph.D.\nLaboratory of Cancer Biology and Genetics,\nCenter for Cancer Research, National Cancer Institute,\nNational Institute of Health, Bethesda, Maryland\nDrug resistance and disease progression are common in multiple myeloma (MM) patients, underscoring the need for new therapeutic combinations. […] We hypothesized that effective combinations would reduce MYC expression and enhance p16 activity. […] These preclinical data identify potentially useful drug combinations for evaluation in drug-resistant MM and reveal potential mechanisms of combined drug sensitivity.\nDescribed herein is the primary MIPE qHTS used to cherrypick compounds. Validated compounds were then further tested for potential synergistic activiy.\n[1] Peat TJ, Gaikwad SM, Dubois W, Gyabaah-Kessie N, Zhang S, Gorjifard S, Phyo Z, Andres M, Hughitt VK, Simpson RM, Miller MA, Girvin AT, Taylor A, Williams D, D'Antonio N, Zhang Y, Rajagopalan A, Flietner E, Wilson K, Zhang X, Shinn P, Klumpp-Thomas C, McKnight C, Itkin Z, Chen L, Kazandijian D, Zhang J, Michalowski AM, Simmons JK, Keats J, Thomas CJ, Mock BA. Drug combinations identified by high-throughput screening promote cell cycle transition and upregulate Smad pathways in myeloma. Cancer Lett. 2023 Aug 1;568:216284. doi: 10.1016/j.canlet.2023.216284. Epub 2023 Jun 24. PMID: 37356470; PMCID: PMC10408729.\nSEQUENCE No. (e.g., 1, 2, 3, etc.); […] (e.g., Cells, Incubation, Reagent, etc.); VALUE and DESCRIPTION.\n1; Cells; 5 uL; white, solid bottom 1536-well Greiner assay plate.\n2; Compounds; 23 nL; Kalypsis pin tool (Wako USA) equipped with a 1536-well pin head to transfer to the assay plates.\n3; Incubation; 48 hours; 37C incubation.\n4; Reagent;5uL; CellTiter Glo (Promega).\n5; Detector; 425V; Luminescence; Viewlux PerkinElmer.\nNOTES (numbers refer to Sequence numbers above)\n1. The cell-based screening methods employed in this study were like those previously published. Briefly, the corresponding myeloma cell lines were screened in 1,536-well plates with 500 cells, 5-uL per well for inhibition of cell viability (assessed by measuring ATP levels with CellTiterGlo).\n2. NCATS MIPE 4.0 library of approved and investigational drugs were added using the Kalypsis pin tool. Wells treated with DMSO only for 100% viability and media only for 0% viability were used as controls.\n3. The assay plates were covered and incubated for 48 hours in a 37C, 5% CO2 incubator with controlled humidity.\n4. After 48 hours, CellTilter-GloTM luminescent substrate mix (Promega) reagent was added to the assay plate and plates we incubated for 5 min at room temperature.\n5. Signal was measured as median relative luminescence units on a ViewLux (PerkinElmer) multiplate reader.\n[1] Heske CM, Davis MI, Baumgart JT, Wilson K, Gormally MV, Chen L, Zhang X, Ceribelli M, Duveau DY, Guha R, Ferrer M, Arnaldez FI, Ji J, Tran HL, Zhang Y, Mendoza A, Helman LJ, Thomas CJ. Matrix Screen Identifies Synergistic Combination of PARP Inhibitors and Nicotinamide Phosphoribosyltransferase (NAMPT) Inhibitors in Ewing Sarcoma. Clin Cancer Res. 2017 Dec 1;23(23):7301-7311. doi: 10.1158/1078-0432.CCR-17-1121. Epub 2017 Sep 12. PMID: 28899971; PMCID: PMC6636827.", "values": [{"smiles": "Cc1ccc(Nc2cc(-c3cccc(N4C(=O)c5ccccc5C4=O)c3)ncn2)cc1NS(C)(=O)=O", "Potency": "active: 20.9 µM"}, {"smiles": "CO[C@H]1/C=C\\O[C@@]2(C)Oc3c(C)c(O)c4c(O)c(c5c(nc6cc(C)ccn65)c4c3C2=O)NC(=O)C(C)=CC=C[C@H](C)[C@H](O)[C@@H](C)[C@@H](O)[C@@H](C)[C@H](OC(C)=O)[C@H]1C", "Potency": "inconclusive: 0.0118 µM [cytotoxic, full curve, poor fit]"}, {"smiles": "CN[C@@H](C)C(=O)N[C@H]1CCCC[C@H]2CC[C@@H](C(=O)N[C@@H](c3ccccc3)c3cn(CCCCc4ccc(CCCCn5cc([C@@H](NC(=O)[C@@H]6CC[C@@H]7CCCC[C@H](NC(=O)[C@H](C)NC)C(=O)N76)c6ccccc6)nn5)cc4)nn3)N2C1=O", "Potency": "inactive"}, {"smiles": "CNC(=O)c1ccc(-c2cnc3ncc(Cc4ccc5ncccc5c4)n3n2)cc1F", "Potency": "inconclusive: 37.2 µM [cytotoxic, single point]"}, {"smiles": "O=C(CO)N1CCC(c2[nH]nc(-c3ccc(Cl)cc3)c2-c2ccncn2)CC1", "Potency": "inactive"}, {"smiles": "Cc1cc(C(=O)NOCCO)c(Nc2ccc(I)cc2F)n(C)c1=O", "Potency": "inconclusive: 0.0066 µM [cytotoxic, full curve, poor fit]"}, {"smiles": "COCCCOc1cc(C[C@@H](C[C@H](N)[C@@H](O)C[C@H](C(=O)NCC(C)(C)C(N)=O)C(C)C)C(C)C)ccc1OC", "Potency": "inconclusive: 3.32 µM [rising, partial curve, poor fit]"}, {"smiles": "CN1N=C(N)c2cn([C@@H]3O[C@H](COP(=O)(O)O)[C@@H](O)[C@@H]3O)c3ncnc1c23", "Potency": "inconclusive: 0.833 µM [cytotoxic, partial curve]"}, {"smiles": "Clc1ccc(C(c2ccccc2Cl)C(Cl)Cl)cc1", "note": "(stereo not given)", "Potency": "active: 26.4 µM"}, {"smiles": "CNCCCC12CCC(c3ccccc31)c1ccccc12", "Potency": "inconclusive: 37.2 µM [cytotoxic, single point]"}, {"smiles": "O=C(O)c1ccc(-c2c[nH]c3ncc(-c4ccccc4)cc23)cc1C1CCCC1", "Potency": "inactive"}, {"smiles": "CCNC(=O)Nc1ccc2ncc(Nc3ccc(C)cc3)nc2n1", "Potency": "inconclusive: 5.9 µM [cytotoxic, full curve, poor fit]"}, {"smiles": "Cc1cnc(C(=O)O)c[n+]1[O-]", "Potency": "inconclusive: 0.526 µM [cytotoxic, full curve, poor fit]"}, {"smiles": "Cc1ncc([N+](=O)[O-])n1CC(C)O", "note": "(stereo not given)", "Potency": "inconclusive: 0.372 µM [rising, full curve, poor fit]"}, {"smiles": "CCCCOc1ccc(C(=O)Nc2ccc(F)cc2F)cc1", "Potency": "inconclusive: 0.0026 µM [rising, full curve, poor fit]"}, {"smiles": "O=C1N(c2ccccc2)c2ccccc2C1(Cc1ccncc1)Cc1ccncc1", "Potency": "inconclusive: 0.0148 µM [rising, full curve]"}, {"smiles": "C#C[C@]1(O)CC[C@H]2[C@H]3CCc4cc(OC)ccc4[C@H]3CC[C@@]21C", "Potency": "inactive"}, {"smiles": "C[C@H]1C[C@@H]2[C@@H]([C@@H](O)C[C@@]3(C)[C@H]2CC[C@]3(O)C(=O)CO)[C@@]2(C)C=CC(=O)C=C12", "Potency": "inconclusive: 0.166 µM [cytotoxic, single point]"}, {"smiles": "C[C@@]1(C(=O)Nc2ccc(F)nc2)CCCN1c1nc(Nc2cc(C3CC3)[nH]n2)c2cccn2n1", "Potency": "inconclusive: 13.2 µM [cytotoxic, partial curve]"}, {"smiles": "COc1ccc2c(Oc3ccc(NC(=O)c4c(C)n(CC(C)(C)O)n(-c5ccccc5)c4=O)cc3F)ccnc2c1", "Potency": "inconclusive: 18.7 µM [cytotoxic, partial curve, poor fit]"}, {"smiles": "O=c1cc(N2CCOCC2)oc2c(-c3cccc4c3sc3ccccc34)cccc12", "Potency": "active: 4.18 µM"}, {"smiles": "CC(C)(C)c1[nH]cnc1C=c1[nH]c(=O)c(=Cc2ccccc2)[nH]c1=O", "Potency": "inconclusive: 0.241 µM [cytotoxic, full curve]"}, {"smiles": "CC1COc2c(N3CCN(C)CC3)c(F)cc3c(=O)c(C(=O)O)cn1c23", "note": "(stereo not given)", "Potency": "inactive"}, {"smiles": "Cc1ccc([C@@H]2O[C@H](CO)[C@@H](O)[C@H](O)[C@@H]2O)cc1Cc1ccc(-c2ccc(F)cc2)s1", "Potency": "inactive"}, {"smiles": "O=C(O)c1cc(=O)[nH]c(=O)[nH]1", "Potency": "inconclusive: 4.18 µM [cytotoxic, partial curve, poor fit]"}, {"smiles": "CCC(C)n1ncn(-c2ccc(N3CCN(c4ccc(OC[C@H]5CO[C@](Cn6cncn6)(c6ccc(Cl)cc6Cl)O5)cc4)CC3)cc2)c1=O", "note": "(stereo not given in full)", "Potency": "inconclusive: 2.64 µM [cytotoxic, partial curve, poor fit]"}, {"smiles": "COc1c(O)cc2c(c1O)[C@@H]1O[C@H](CO)[C@@H](O)[C@H](O)[C@H]1OC2=O", "Potency": "inconclusive: 37.2 µM [cytotoxic, single point]"}, {"smiles": "COc1ccccc1N1CCN(CCN(C(=O)C2CCCCC2)c2ccccn2)CC1", "Potency": "inactive"}, {"smiles": "CC[C@H]1OC(=O)[C@H](C)[C@@H](O[C@H]2C[C@@](C)(OC)[C@@H](O)[C@H](C)O2)[C@H](C)[C@@H](O[C@@H]2O[C@H](C)C[C@H](N(C)C)[C@H]2O)[C@](C)(O)C[C@H](C)C(=NOCOCCOC)[C@H](C)[C@@H](O)[C@]1(C)O", "Potency": "inconclusive: 20.9 µM [cytotoxic, partial curve, poor fit]"}, {"smiles": "CN(C)C(=O)C(CCN1CCC(O)(c2ccc(Cl)cc2)CC1)(c1ccccc1)c1ccccc1", "Potency": "inconclusive: 18.7 µM [cytotoxic, partial curve, poor fit]"}, {"smiles": "CC(=O)O[C@]1(C(C)=O)CC[C@@H]2[C@@H]3C[C@H](C)C4=CC(=O)CC[C@]4(C)[C@H]3CC[C@@]21C", "Potency": "inconclusive: 26.4 µM [cytotoxic, single point]"}, {"smiles": "CN(C)CCOc1cc(-c2cn[nH]c2)ccc1NC(=O)C1COc2ccccc2O1", "note": "(stereo not given)", "Potency": "inactive"}, {"smiles": "Nc1ccn([C@@H]2O[C@H](CO)[C@@H](O)[C@H]2O)c(=O)n1", "Potency": "inactive"}, {"smiles": "CC1(C)CCC(C)(C)c2cc(NC(=O)c3ccc(C(=O)O)cc3)ccc21", "Potency": "inconclusive: 0.833 µM [cytotoxic, full curve, poor fit]"}, {"smiles": "CCC(=O)O[C@]1(C(=O)CO)CC[C@H]2[C@@H]3CCC4=CC(=O)CC[C@]4(C)[C@@H]3CC[C@@]21C", "Potency": "inconclusive: 10.5 µM [rising, single point]"}, {"smiles": "COc1ccc(Cc2ccc(NC(N)=O)cc2)cc1-c1cccc(Cl)c1", "Potency": "inconclusive: 37.2 µM [cytotoxic, single point]"}, {"smiles": "O=C(OCC#CCSc1nnc(-c2cccc3ccccc23)o1)c1cc2ccccc2s1", "Potency": "inconclusive: 20.9 µM [cytotoxic, partial curve, poor fit]"}, {"smiles": "Cc1nc(C(=O)NCC(=O)O)c(O)c2ccc(Oc3ccccc3)cc12", "Potency": "inconclusive: 37.2 µM [cytotoxic, single point]"}, {"smiles": "CCOc1cc(CC(=O)N[C@@H](CC(C)C)c2ccccc2N2CCCCC2)ccc1C(=O)O", "Potency": "inconclusive: 0.0935 µM [rising, full curve, poor fit]"}, {"smiles": "COc1cc(C)c(C=CC(C)=CC=CC(C)=CC(=O)O)c(C)c1C", "Potency": "inconclusive: 0.001 µM [cytotoxic]"}]}]}
